{"source": "patent US20250020645", "about": "“A4B1 BINDING APTAMERS” (University of Washington, published 2025)", "key": {"[1]": {"system": "Integrin alpha4beta1 on Jurkat cells (clone E6-1) (Homo sapiens)", "test": "flow cytometry", "details": "protein on the cell surface, protein details: endogenous, ATCC cell line, single-stranded DNA"}, "[2]": {"system": "Integrin alpha4beta1 on B16F10 melanoma cells (Mus musculus)", "test": "flow cytometry", "details": "lower affinity and MFI than HR7A1; protein on the cell surface; protein details: endogenous, ATCC cell line; label: Cy5; single-stranded DNA"}, "[3]": {"system": "Integrin alpha4beta1 on H9 T-lymphoma cells (Homo sapiens)", "test": "flow cytometry", "details": "protein on the cell surface, protein details: endogenous, ATCC cell line, single-stranded DNA"}, "[4]": {"system": "Integrin beta1 (CD29) on alpha4-negative K562 cells (alpha5beta1+) (Homo sapiens)", "test": "flow cytometry", "details": "alpha4-negative beta1-positive cells, protein on the cell surface, protein details: endogenous, ATCC cell line, single-stranded DNA"}, "[5]": {"system": "Integrin alpha4beta1 on Jurkat cells (clone E6-1) (Homo sapiens)", "test": "inhibition of the protein", "details": "protein on the cell surface, protein details: endogenous, ATCC cell line, single-stranded DNA"}, "[6]": {"system": "Integrin alpha4beta7, recombinant heterodimer (Homo sapiens)", "test": "BLI", "details": "100 nM protein; signal at least 10-fold lower than alpha4beta1, fast dissociation; purified recombinant protein; protein details: His-tag, ACROBiosystems IT7-H52W4; label: biotin, FAM or Cy5; single-stranded DNA"}, "[7]": {"system": "Integrin alpha4beta1 in Jurkat/H9 membrane protein extract (Homo sapiens)", "test": "pull-down", "details": "protein in an extract, protein details: endogenous, Triton X-100 solubilised, single-stranded DNA"}, "[8]": {"system": "Integrin alpha4beta1 on Raji B-lymphoma cells (Homo sapiens)", "test": "flow cytometry", "details": "lowest binding of four lines, saturated at 12.5 nM; protein on the cell surface; protein details: endogenous, ATCC cell line; label: biotin, FAM or Cy5; single-stranded DNA"}, "[9]": {"system": "Integrin alpha4beta1 on Jurkat cells (clone E6-1) (Homo sapiens)", "test": "competition with a labelled probe", "details": "control; does not inhibit VCAM-1 binding; protein on the cell surface; protein details: endogenous, ATCC cell line; label: biotin or Cy5; single-stranded DNA"}, "[10]": {"details": "5' DBCO-TEG with 4dT spacer, grafted on biotin-PEG4-(HPMA-co-AzP3MA)-CCP polymer, range over three conjugates, by aptamer concentration, 4 C, label: 3' Cy5, variant of HR7A1.Tr2.S2E2"}, "[11]": {"details": "apparent, range over four aptamers, Tr1 two- to three-fold lower Kd than HR7A1 and Sgc4f, 4 C, label: biotin, FAM or Cy5, variant of HR7A1"}, "[12]": {"details": "label: biotin, FAM or Cy5, variant of HR7A1"}, "[13]": {"details": "apparent, range over four aptamers, Tr2 two- to three-fold lower Kd than HR7A1 and Sgc4f, 4 C, label: biotin, FAM or Cy5, variant of HR7A1"}, "[14]": {"details": "label: biotin, variant of HR7A1.Tr2"}}, "note": "For part of these data: Weaker means in comparison with the reference protein, sequence or condition of that experiment. For part of these data: At least one result comes from cells or an extract, where the contact may be indirect. For part of these data: A negative result means that nothing was seen under these conditions. For part of these data: For at least one entry, the source does not settle the construct or the ends of the probe.", "data": [{"sequence": "CGCGCCGTACTAGATGCAACCCGACTACTAACGTCGTACGAGCGCG [HR7A1.Tr2.S2E2-polymer conjugate 1:1]", "values": [{"measurement": "binding result", "setting": "[1]; [10]", "result": "binds"}]}, {"sequence": "ATCACTTATAACGAGTGCGGATGCAAACGCCAGACAGGGGGACAGGAGATAAGTGA [Sgc4f]", "values": [{"measurement": "binding result", "setting": "[2]", "result": "binds more weakly"}, {"measurement": "binding result", "setting": "[3]; apparent, range over four aptamers, similar to HR7A1, 4 C, label: Cy5", "result": "binds"}, {"measurement": "binding result", "setting": "[1]; apparent, range over four aptamers, slightly lower affinity than HR7A1, 4 C, label: Cy5", "result": "binds"}, {"measurement": "binding result", "setting": "[4]; label: Cy5", "result": "no binding"}]}, {"sequence": "CAGCAAACCTGACCTCCTTACTAGATGCAACCCGACTACTAACGTCGTAAGAGAG [HR7A1.Tr1]", "values": [{"measurement": "binding result", "setting": "[3]; [11]", "result": "binds"}, {"measurement": "binding result", "setting": "[1]; [11]", "result": "binds"}, {"measurement": "binding result", "setting": "[4]; [12]", "result": "no binding"}]}, {"sequence": "CTCCTTACTAGATGCAACCCGACTACTAACGTCGTAAGAGAG [HR7A1.Tr2]", "values": [{"measurement": "binding result", "setting": "[3]; [13]", "result": "binds"}, {"measurement": "binding result", "setting": "[1]; [13]", "result": "binds"}, {"measurement": "binding result", "setting": "[4]; [12]", "result": "no binding"}]}, {"sequence": "GCGTACTAGATGCAACCCGACTACTAACGTCGTACGC [HR7A1.Tr4]", "values": [{"measurement": "binding result", "setting": "[1]; retains binding affinity, minimal motif, label: Cy5, variant of HR7A1.Tr2", "result": "binds"}]}, {"sequence": "CGCGCCGTACTAGATGCAACCCGACTACTAACGTCGTACGAGCGCG [HR7A1.Tr2.S2E2-polymer conjugate 3:1]", "values": [{"measurement": "binding result", "setting": "[1]; [10]", "result": "binds"}, {"measurement": "functional effect of the aptamer", "setting": "[5]; 5' DBCO-TEG with 4dT spacer, grafted on biotin-PEG4-(HPMA-co-AzP3MA)-CCP polymer, improved inhibition of Jurkat adhesion to VCAM-1 at 37 C vs free aptamer, label: 3' Cy5, variant of HR7A1.Tr2.S2E2, dose not given here", "result": "active"}]}, {"sequence": "ATCCAGAGTGACGCAGCAAACCTGACCTCCTTACTAGATGCAACCCGACTACTAACGTCGTAAGAGAGCCTGGACACGGTGGCTTAGT [HR7A1]", "values": [{"measurement": "binding result", "setting": "[6]", "result": "binds more weakly"}, {"measurement": "binding result", "setting": "[7]; bands identified by MS as integrin alpha4 and beta1, label: biotin, FAM or Cy5", "result": "binds"}, {"measurement": "binding result", "setting": "[8]", "result": "binds"}, {"measurement": "binding result", "setting": "[4]; label: biotin, FAM or Cy5", "result": "no binding"}]}, {"sequence": "GCAGCAGCGTAAAGGGGGTGTTTGTGCGGTGTGGAGTGCGCGTGCTGCTGC [tJBA8.1]", "values": [{"measurement": "binding result", "setting": "[7]; TfR1 aptamer control, alpha4/beta1 bands not enriched, label: biotin or Cy5", "result": "no binding"}, {"measurement": "binding result", "setting": "[9]", "result": "no binding"}]}, {"sequence": "CTAGATGCAACCCGACTACTAACGTCG [HR7A1.Tr3]", "values": [{"measurement": "binding result", "setting": "[3]; [14]", "result": "no binding"}, {"measurement": "binding result", "setting": "[1]; [14]", "result": "no binding"}]}, {"sequence": "CGCGCCGTACTAGATGCAACCCGACTACTAACGTCGTACGAGCGCG [HR7A1.Tr2.S2E2.PSA]", "values": [{"measurement": "functional effect of the aptamer", "setting": "[5]; PS at * : C*G*CGCCGTA*CTA*GA*TGCA*A*CCCGACTACTAA*CGTCGTACGAGCG*C*G, 100 nM inhibits Jurkat adhesion to VCAM-1, less at 37 C than 4 C, variant of HR7A1.Tr2.S2E2", "result": "active"}]}, {"sequence": "CGCGCCGTACTAGATGCAACCCGACTACTAACGTCGTACGAGCGCG [HR7A1.Tr2.S2E2]", "values": [{"measurement": "functional effect of the aptamer", "setting": "[5]; 100 nM inhibits Jurkat adhesion to VCAM-1, less at 37 C than 4 C, label: FAM or Cy5, variant of HR7A1.Tr2", "result": "active"}]}]}
